Source: article PMC4440459
These are yes or no findings as the source states them, for the method shown. In cells and extracts the contact can be indirect. Some entries that bind do so weakly or less than the wild type.

Sequences of proteins named here, by UniProt entry; tags and fusion partners are left off.
UniProt Q00987: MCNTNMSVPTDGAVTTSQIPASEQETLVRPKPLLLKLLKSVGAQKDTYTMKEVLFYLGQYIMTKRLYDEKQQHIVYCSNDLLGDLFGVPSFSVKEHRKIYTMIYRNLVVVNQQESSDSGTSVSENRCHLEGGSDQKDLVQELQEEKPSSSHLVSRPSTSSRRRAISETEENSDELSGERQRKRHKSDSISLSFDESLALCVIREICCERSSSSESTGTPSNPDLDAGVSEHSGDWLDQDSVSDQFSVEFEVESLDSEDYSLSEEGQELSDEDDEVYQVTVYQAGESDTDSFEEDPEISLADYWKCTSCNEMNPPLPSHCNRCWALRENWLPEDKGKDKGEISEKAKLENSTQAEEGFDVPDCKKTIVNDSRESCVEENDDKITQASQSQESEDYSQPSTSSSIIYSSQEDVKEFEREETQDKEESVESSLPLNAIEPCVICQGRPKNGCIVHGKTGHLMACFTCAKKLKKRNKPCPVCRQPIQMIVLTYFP

Target: MDM2 (UniProt Q00987)
Assay: co-IP; overexpression of both NBPF1 and MDM2 in HEK293T cells; data not shown; bait not stated

B1: NBPF1 (Neuroblastoma Breakpoint Family, member 1) (protein, UniProt Q3BBV0 1-1214)
chain: MVVSAGPWSSEKAETNILEINEKLRPQLAENKQQFRNLKEKCFVTQLAGFLANRQKKYKYEECKDLIKFMLRNERQFKEEKLAEQLKQAEELRQYKVLVHSQERELTQLREKLREGRDASRSLNQHLQALLTPDKPDKSQGQDLQEQLAEGCRLAQQLFQKLSPENDEDEDEDVQVEEAEKVLESSAPREVQKAEESKVPEDSLEECAITCSNSHSPCDSNQPHKNINITFEEDKVNSTLVVDRESSHDECQDAVNILPVPGPTSSATNVSMVVSAGPLSSEKAEMNILEINEKLHPQLAEKKQQFRNLKEKCFVTQLACFLANQQNKYKYEECKDLIKSMLRNERQFKEEKLAEQLKQAEELRQYKVLVHSQERELTQLREKLREGRDASRSLNQHLQALLTPDKPDKSQGQDLQEQLAEGCRLAQQLFQKLSPENDEDEDEDVQVEEAEKVLESSAPREVQKAEESKVPEDSLEECAITCSNSHGPCDSNQPHKNINITFEEDKVNSALVVDRESSHDECQDAVNILPVPGPTSSATNVSMVVSAGPLSSEKAEMNILEINEKLHPQLAEKKQQFRNLKEKCFVTQLACFLANQQNKYKNEECKDLIKSMLRNERQFKEEKLAEQLKQAEELRQYKVLVHSQERELTQLREKLREGRDASCSLNQHLQALLTPDEPDKSQGQDLQEQLAEGCRLAQHLVQKLSPENDNDDDEDVQVEVAEKVQKSSAPREMPKAEEKEVPEDSLEECAITCSNSHGPYDSNQPHRKTKITFEEDKVDSTLIGSSSHVEWEDAVHIIPENESDDEEEEEKGPVSPRNLQESEEEEVPQESWDEGYSTLSIPPEMLASYKSYSGTFHSLEEQQVCMAVDIGGHRWDQVKKEDQEATGPRLSRELLDEKGPEVLQDSLDRCYSTPSGYLELTDSCQPYRSAFYILEQQRVGWALDMDEIEKYQEVEEDQDPSCPRLSRELLDEKEPEVLQDSLDRCYSTPSGYLELPDLGQPYRSAVYSLEEQYLGLALDVDRIKKDQEEEEDQGPPCPRLSRELLEAVEPEVLQDSLDRCYSTPSSCLEQPDSCLPYGSSFYALEEKHVGFSLDVGEIEKKGKGKKRRGRRSTKKRRRRGRKEGEEDQNPPCPRLSGMLMEVEEPEVLQDSLDRCYSTPSMYFELPDSFQHYRSVFYSFEEQHISFALDVDNRFLTLMGTSLHLVFQMGVIFPQ
Q: How did the binding turn out when B1 was run?
A: binds weakly
